PubChem BioAssay AID504804 | Drosophila RNAi Screening Center, 2011
In all, the deposit lists about 19,000 reagents; this is an unselected part of those that have a named target and a result. Over the whole deposit, 47 (0.25%) were called active. 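Signals are raw, not normalised; exact z-scores behind calls not deposited; actives needed confirmation, so some wells reaching 2 SD are inactive.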 Unmarked entries are inactive. Names joined by + are all predicted targets of the reagent. No sequences are given here.

Assay: 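Knock-downs shielding fly cells from apoptosis caused by DNA damage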 (primary screen)
Cells: Drosophila Kc cells
Reagents: long dsRNA against Drosophila genes, 0.5 µg dsRNA per well
Duration: 96 h (48 h knock-down, then 48 h drug)
Conditions: doxorubicin 5 µg/ml for 48 h, added 48 h after dsRNA
Read-out: 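Luminescent ATP counts per replicate, not normalised, reflecting viable cells after 48 h dsRNA knock-down followed by 48 h of 5 µg/ml doxorubicin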
Direction: raw ATP luminescence: higher = more viable cells, protection from doxorubicin
Rule for the call: 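Active when both duplicate wells lie at least 2 SD above the plate mean and protection is confirmed by rescreening and independent dsRNAs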

After knock-down of Sec16 (Secretory 16) [DRSC19788], the screen gave raw ATP luminescence, replicate 1 = 2.86e5; raw ATP luminescence, replicate 2 = 2.83e5.
Sec16 (Secretory 16) [DRSC19858] scored raw ATP luminescence, replicate 1 = 3.58e5; raw ATP luminescence, replicate 2 = 3.27e5.
After knock-down of Coa7 (Cytochrome c oxidase assembly factor 7) [DRSC20967] the results were raw ATP luminescence, replicate 1 = 1.66e5; raw ATP luminescence, replicate 2 = 1.80e5.
For hay (haywire) [DRSC11354] the deposit lists raw ATP luminescence, replicate 1 = 32623; raw ATP luminescence, replicate 2 = 38573.
Depletion of CG14383 [DRSC14841] gave: raw ATP luminescence, replicate 1 = 81850; raw ATP luminescence, replicate 2 = 59240.
Silencing of Ent2 (Equilibrative nucleoside transporter 2) [DRSC02124] gave: raw ATP luminescence, replicate 1 = 1.25e5; raw ATP luminescence, replicate 2 = 82267.
Silencing of CG10274 [DRSC09716] gave: raw ATP luminescence, replicate 1 = 39017; raw ATP luminescence, replicate 2 = 38667.
meng (meng-po) [DRSC02134] showed raw ATP luminescence, replicate 1 = 33780; raw ATP luminescence, replicate 2 = 42813.
dmrt93B (doublesex-Mab related 93B) [DRSC15865] scored raw ATP luminescence, replicate 1 = 66200; raw ATP luminescence, replicate 2 = 59030.
Knock-down of CG33791 + CG12105 + CG18170 [DRSC08387] resulted in: raw ATP luminescence, replicate 1 = 58243; raw ATP luminescence, replicate 2 = 55560.
With knock-down of CG1275 [DRSC08294] the results were raw ATP luminescence, replicate 1 = 66080; raw ATP luminescence, replicate 2 = 67853.
Against Snap29 (Synaptosomal-associated protein 29kDa) [DRSC04721], the values are raw ATP luminescence, replicate 1 = 39593; raw ATP luminescence, replicate 2 = 53353.
Smu1 (Smu1 spliceosomal factor) [DRSC15803] gave raw ATP luminescence, replicate 1 = 60943; raw ATP luminescence, replicate 2 = 83177.
With knock-down of CG31482 [DRSC12582] the results were raw ATP luminescence, replicate 1 = 56373; raw ATP luminescence, replicate 2 = 57163.
Knock-down of Ag5r2 (Antigen 5-related 2) [DRSC19328] came out at: raw ATP luminescence, replicate 1 = 4.28e5; raw ATP luminescence, replicate 2 = 3.38e5.
Depletion of ph-d (polyhomeotic distal) [DRSC18819] resulted in: raw ATP luminescence, replicate 1 = 14710; raw ATP luminescence, replicate 2 = 17190.
CG13272 [DRSC02249] scored raw ATP luminescence, replicate 1 = 76053; raw ATP luminescence, replicate 2 = 78467.
After knock-down of mTTF (mitochondrial transcription termination factor) [DRSC01909], the screen gave raw ATP luminescence, replicate 1 = 63450; raw ATP luminescence, replicate 2 = 95537.
Nacalpha (Nascent polypeptide associated complex protein alpha subunit) [DRSC07477] scored raw ATP luminescence, replicate 1 = 70800; raw ATP luminescence, replicate 2 = 54067.
